Earlier results, collected in US11135231B2, “Methods and compositions for prevention and treatment of Apicomplexan infections” (Tufts Medical Center, Inc., priority 2016, dated 2021).
Like-named read-outs stand apart in the source and are kept apart here. At least one compound was matched to its structure with a doubt left.

System: P. falciparum strains
Parameters: key: R = Clinically Resistant; S + Sensitive
Settings: cited from earlier work

In the case of `CCc1nc(N)nc(N)c1-c1ccc(Cl)cc1` [Pyrimethamine], the Drug resistance phenotype (cell line 3D7 (Netherlands, clone of NF54)) is listed as “S”, the Drug resistance phenotype (cell line 7G8 (Brazil)) is listed as “R” and the Drug resistance phenotype (cell line D6 (Sierra Leone)) is listed as “S”. For the same compound, the Drug resistance phenotype (cell line Dd2 (SE Asia)) was “R”, the Drug resistance phenotype (cell line Goan Isolate (Goa, India)) was “R” and the Drug resistance phenotype (cell line HB3 (Honduras)) was “R”. For the same compound, the Drug resistance phenotype (cell line NF54 (Netherlands)) was “S”, the Drug resistance phenotype (cell line TM90C2A (Thailand)) was “R” and the Drug resistance phenotype (cell line V1/S (Vietnam)) was “R”.
